Measured values from US20220096652A1, “ACETAL-BASED CLEAVABLE LINKERS” (Synaffix B.V., priority 2019, published 2022).
At least one compound was matched to its structure with a doubt left.

Key:
[1] = Negative control: incubation in histidine acetate buffer pH 6 without Papain, UPLC-MS; assay type: physicochemical; details: pH 6, Papain NO, 37° C., 18 h (10, 18) or 67 h (26); based on peak area (UV 254 nm)
Description: To an Eppendorf vial containing histidine acetate buffer (110 μL, 20 mM, pH 6) was added a solution of 10 in DMF (3 μL, 10 mM).
To an Eppendorf vial containing histidine acetate buffer (110 μL, 20 mM, pH 6) was added a solution of 18 in DMF (3 μL, 10 mM).
To an Eppendorf vial containing histidine acetate buffer (110 μL, 20 mM, pH 6) was added a solution of 26 in DMF (3 μL, 10 mM). […] The intermediate 26-Int was not observed.

Papain = target: T1, Papain (Carica papaya, UniProt P00784); assay: Papain digestion of linker-drug in histidine acetate buffer, UPLC-MS; assay type: in vitro ADME; details: pH 6, Papain YES, 37° C., 67 h; based on peak area (UV 254 nm)
T1 sequence (P00784 134-345): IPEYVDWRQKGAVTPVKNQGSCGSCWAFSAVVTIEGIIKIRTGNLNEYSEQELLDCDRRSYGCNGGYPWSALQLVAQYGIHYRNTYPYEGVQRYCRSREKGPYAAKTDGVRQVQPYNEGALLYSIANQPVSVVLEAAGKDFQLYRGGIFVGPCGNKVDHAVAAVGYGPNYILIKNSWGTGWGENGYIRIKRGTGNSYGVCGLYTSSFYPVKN
Description: To an Eppendorf vial containing histidine acetate buffer (50 μL, 20 mM, pH 6) were added a solution of 10 in DMF (3 μL, 10 mM) and a Papain solution in histidine acetate buffer (0.5 mg/mL, 20 mM buffer, pH 6).
To an Eppendorf vial containing histidine acetate buffer (50 μL, 20 mM, pH 6) were added a solution of 18 in DMF (3 μL, 10 mM) and a Papain solution in histidine acetate buffer (0.5 mg/mL, 20 mM buffer, pH 6).
To an Eppendorf vial containing histidine acetate buffer (50 μL, 20 mM, pH 6) were added a solution of 26 in DMF (3 μL, 10 mM) and a Papain solution in histidine acetate buffer (0.5 mg/mL, 20 mM buffer, pH 6).

CC[C@@]1(O)C(=O)OCc2c1cc1n(c2=O)Cc2c-1nc1cc(F)c(C)c3c1c2[C@@H](NC(=O)COC1(OCc2ccc(NC(=O)[C@H](C)NC(=O)[C@@H](NC(=O)OCCOCCNC(=O)OC[C@@H]4[C@@H]5CCC#CCC[C@@H]54)C(C)C)cc2)CCCCC1)CC3 [Compound 26]
Ratio DXd / s.m. [1]: 3:97 | Ratio DXd / s.m. (Papain): 65:35
